# Data published in PubChem BioAssay AID2685 (National Center for Advancing Translational Sciences (NCATS), 2010).
# The other results are listed elsewhere or left out. The main result of the screen is listed elsewhere. These columns were measured beside it and carry no call. Compounds called inactive in the main read-out are mostly missing here. The note in brackets gives the kind of curve behind each potency; many fits are weak.
# Experiment: qHTS Assay for Lipid Storage Modulators in Drosophila S3 Cells;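 as to cell number change: cells counted by Cell Tracker Red CMTPX staining in the red channel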
# Details: BODIPY lipid droplet fluorescence, 18-24 h; for cell number change: measured here: cell count max response, cells fed with added oleic acid
# In short: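 Drosophila S3 cells loaded with oleic acid (400 uM, as added) and compounds at several concentrations; lipid droplets imaged by 488-nm laser-scanning cytometry, 500–530 nm intensity and object ratio to cell channel. Percent activity normalized to 20 uM Triacsin C.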
# [1] = measured here: cell number channel AC50, cells fed with added oleic acid
# [2] = measured here: lipid fluorescence (Fed channel) AC50, cells fed with added oleic acid
compound,measurement,setting,value
CC1(C)CC(=O)C=C(c2ccc(-c3ccccc3)cc2)C1,cell number change,,-37.3%
same,AC50,[1],"0.231 µM [falling, full curve, poor fit]"
same,AC50,[2],"0.731 µM [falling, partial curve]"
COc1ccccc1CNc1n[nH]c(NCc2ccccc2OC)n1,cell number change,,3.44%
same,AC50,[2],"18.4 µM [rising, partial curve, poor fit]"
CCOc1ccc2nc(N3CCCC(C(=O)NCCCN4CC(C)CC(C)C4)C3)sc2c1 (stereo not drawn),cell number change,,30.8%
same,AC50,[1],"0.461 µM [rising, full curve, poor fit]"
Cc1cccc(NC(=S)N2CCN(S(=O)(=O)c3ccccc3)CC2)c1,cell number change,,10.7%
same,AC50,[2],"18.4 µM [rising, partial curve]"
CN(CC(=O)Nc1ccc(F)cc1)C(=O)COC(=O)c1ccccc1,cell number change,,-3.61%
Fc1ccc(/C=N/n2cnn(Cc3ccccc3Cl)c2=S)cc1,AC50,[2],"29.1 µM [rising, single point]"
O=S(=O)(Nc1cccc(-c2ccc3nncn3n2)c1)c1cccc(F)c1,cell number change,,-18%
O=C(O)CC1CCS(=O)(=O)C1 (stereo not drawn),cell number change,,7.8%
same,AC50,[2],"0.411 µM [falling, single point]"
Cc1nn(-c2ccccc2)c(C)c1/C=N/n1c(-c2ccncc2)n[nH]c1=S,cell number change,,17.7%
COc1ccc(/C=N/NC(=O)c2ccc(OC)c(OC)c2)cc1COc1c(F)c(F)c(F)c(F)c1F,cell number change,,5.49%
CCCCCCc1cc2cc(-c3nnc(-c4ccccc4O)o3)c(=O)oc2cc1O,cell number change,,1.08%
same,AC50,[2],"29.1 µM [rising, single point]"
c1cncc(-c2csc(NCc3ccco3)n2)c1,AC50,[1],"0.291 µM [rising, partial curve, poor fit]"
COc1ccc2c(c1OC)C(=O)OC2C/C(=N\NC(N)=O)c1ccccc1 (stereo not drawn),cell number change,,-18.1%
O=C(NCCCN1CCCC1=O)c1cccc(S(=O)(=O)N2CCN(c3ccc(F)cc3)CC2)c1,cell number change,,22.3%
same,AC50,[2],"0.411 µM [rising, partial curve]"
c1coc(CSCc2cn3cccnc3n2)c1,cell number change,,-0.506%
Cc1ccc(C)c(N2N=C(C(=O)Nc3ccc(N4CCOCC4)cc3)CCC2=O)c1,cell number change,,4.59%
same,AC50,[2],"10.3 µM [rising, partial curve]"
CN(C)/C=C(\C=O)c1c(Cl)cccc1Cl,cell number change,,41.9%
same,AC50,[1],"0.184 µM [rising, full curve, poor fit]"
same,AC50,[2],"3.26 µM [rising, full curve, poor fit]"
COc1ccc(C2/C=C\CN(C(=O)c3ccccc3)[C@H](Cc3ccccc3)C(=O)N2Cc2ccc(F)cc2)cc1 (stereo partly drawn),cell number change,,12.5%
same,AC50,[2],"2.91 µM [rising, partial curve, poor fit]"
Nc1nc(SCC(=O)NC2CCCc3ccccc32)n[nH]1 (stereo not drawn),AC50,[1],"0.00411 µM [rising, full curve, poor fit]"
CC1CCCN(S(=O)(=O)c2ccc(NC(=O)C3CC(=O)N(C(C)(C)C)C3)cc2)C1 (stereo not drawn),cell number change,,-12.3%
same,AC50,[2],"29.1 µM [falling, single point]"
Cc1ccc(NC(=O)CSc2ccc(-c3ccccn3)nn2)cc1F,cell number change,,-16.8%
Cc1ccc(CNc2oc(C)nc2C#N)cc1,cell number change,,-16.9%
same,AC50,[2],"29.1 µM [falling, single point]"
O=C(OCC#CCNc1nnc(-c2cccc3ccccc23)o1)c1cccs1,cell number change,,28.5%
CN1CCC(=NNc2ccc(S(=O)(=O)N3CCOCC3)cc2[N+](=O)[O-])CC1,cell number change,,22.7%
same,AC50,[1],"1.84 µM [falling, partial curve, poor fit]"
same,AC50,[2],"29.1 µM [rising, single point]"
COc1cccc(CN2CCC(C(=O)N3CCN(Cc4ccc5c(c4)OCO5)CC3)CC2)c1OC,AC50,[2],"29.1 µM [falling, single point]"
CC1CCN(C(=O)Cn2c3ccccc3c3nc4n(c(=O)c32)CCCS4)CC1,cell number change,,-35.3%
same,AC50,[1],"9.2 µM [falling, partial curve]"
same,AC50,[2],"13 µM [falling, partial curve]"
COc1cc(NC(=O)Cn2c(-c3cncs3)nc3ccccc32)cc(OC)c1OC,cell number change,,-13.3%
same,AC50,[2],"13 µM [falling, single point]"
CCCOc1ccc(CSc2ncn[nH]2)cc1,cell number change,,-6.92%
same,AC50,[2],"13 µM [rising, partial curve]"
Cc1ccc(Cl)cc1NC(=O)c1ccc(Cn2cc(Cl)cn2)cc1,cell number change,,6.33%
same,AC50,[2],"7.31 µM [rising, partial curve]"
COC(=O)CCCC1=CC2=CC(=O)C(C)(OC(=O)c3cccs3)C(=O)C2=CN1CCN1CCOCC1 (stereo not drawn),cell number change,,34%
same,AC50,[1],"0.0517 µM [rising, full curve, poor fit]"
Cc1c(CCOC(=O)C2C3CC4CC(C3)CC2C4)sc[n+]1CC(=O)c1ccc(Br)cc1 (stereo not drawn),cell number change,,-61.9%
same,AC50,[1],"32.6 µM [falling, single point]"
CCCn1c2ccccc2c2nnc(SCC(=O)OC)nc21,cell number change,,-25.9%
same,AC50,[2],"3.66 µM [rising, single point]"
CCOC(=O)c1cc(C(=O)OCC)c(=O)[nH]c1N1CCCCC1,AC50,[1],"0.00517 µM [rising, full curve, poor fit]"
Cc1ccnc(NC(=O)CSc2cc(=O)n(C)c3ccccc23)c1,AC50,[1],"0.206 µM [falling, full curve, poor fit]"
O=C(c1cc(C2CC2)nn1-c1ccccc1)N1CCN(Cc2ccc(Cl)cc2)CC1,cell number change,,-22.3%
same,AC50,[2],"10.3 µM [falling, partial curve]"
COc1ccccc1CNS(=O)(=O)c1ccc2c(c1)CCCN2C(C)=O,cell number change,,2.82%
same,AC50,[2],"29.1 µM [rising, single point]"
COc1cccc(C(=O)/C=C/Nc2ccc(S(=O)(=O)Nc3cccc(C(C)=O)c3)cc2)c1,AC50,[2],"10.3 µM [falling, partial curve]"
COc1ccc(/C=N/NC(=O)C(=O)NCC2CCCO2)cc1 (stereo not drawn),cell number change,,10.3%
O=C(CN(C(=O)c1csnn1)c1cccc2ccccc12)NCc1ccc(F)cc1,cell number change,,23.4%
same,AC50,[2],"11.6 µM [rising, single point]"
Cn1c(=O)c2c(nc(CN3CCN(c4ccc(F)cc4)CC3)n2CCN2CCOCC2)n(C)c1=O,cell number change,,13%
same,AC50,[2],"0.0291 µM [rising, full curve, poor fit]"

# Laid out differently: results already given.
compound | measurement | setting | value
CC1CCN(C(=O)Cn2c3ccccc3c3nc4n(c(=O)c32)CCCS4)CC1 | AC50 | [1] | 9.2 µM [falling, partial curve]
same | AC50 | [2] | 13 µM [falling, partial curve]
COc1cc(NC(=O)Cn2c(-c3cncs3)nc3ccccc32)cc(OC)c1OC | cell number change |  | -13.3%
same | AC50 | [2] | 13 µM [falling, single point]
CCCOc1ccc(CSc2ncn[nH]2)cc1 | cell number change |  | -6.92%
